The target in assay [1] is MYC-tagged Ku70 1-573 (human) (UniProt P12956). The assay is described as follows: co-IP; HEK293T cells expressing MYC-tagged Ku70 FL or truncations plus/minus FL CSL; anti-cMYC magnetic beads, immunoblotting.
In assay [2] the target is MYC-tagged Ku70 257-609 (human) (UniProt P12956). The assay is described as above.
The target in assay [3] is MYC-tagged Ku70 464-609 (human) (UniProt P12956). The description is as above.
The target in assay [4] is FLAG-tagged CSL BTD (166–334) (human) (UniProt Q06330). The assay is described as follows: co-IP; HEK293T cells expressing FLAG-tagged CSL FL, BTD or point mutants plus/minus FL UPF1 or FL Ku70; anti-FLAG M2 magnetic beads, immunoblotting. (In general: Immunoblotting shows a protein as a band on a membrane.)
The target of assay [5] is FLAG-tagged full length (FL) CSL (human) (UniProt Q06330). Described as above.
Assay [6] has as its target CSL (RBP-Jκ), endogenous (human (endogenous in HDFs)) (UniProt Q06330). The assay is described as follows: proximity ligation; Duolink PLA kit on fixed HDFs; HDFs with silenced CSL as negative control.
For assay [7] the target is unchanged. Kind of assay: co-IP; HDF lysates, anti-CSL antibodies or non-immune IgG, immunoblotting; endogenous proteins.
Assay [8] has the same target. Kind of assay: co-IP; sequential: endogenous CSL immunoprecipitated from HDFs, the eluate immunoprecipitated with anti-UPF1 antibody or non-immune IgG; immunoblotting with CSL, UPF1, Ku70 and Ku80 antibodies.
Assay [9] has as its target T1, UPF1 (Up-Frameshift Suppressor 1 Homolog), endogenous (human (endogenous in HDFs)) (UniProt Q92900).
T1 sequence: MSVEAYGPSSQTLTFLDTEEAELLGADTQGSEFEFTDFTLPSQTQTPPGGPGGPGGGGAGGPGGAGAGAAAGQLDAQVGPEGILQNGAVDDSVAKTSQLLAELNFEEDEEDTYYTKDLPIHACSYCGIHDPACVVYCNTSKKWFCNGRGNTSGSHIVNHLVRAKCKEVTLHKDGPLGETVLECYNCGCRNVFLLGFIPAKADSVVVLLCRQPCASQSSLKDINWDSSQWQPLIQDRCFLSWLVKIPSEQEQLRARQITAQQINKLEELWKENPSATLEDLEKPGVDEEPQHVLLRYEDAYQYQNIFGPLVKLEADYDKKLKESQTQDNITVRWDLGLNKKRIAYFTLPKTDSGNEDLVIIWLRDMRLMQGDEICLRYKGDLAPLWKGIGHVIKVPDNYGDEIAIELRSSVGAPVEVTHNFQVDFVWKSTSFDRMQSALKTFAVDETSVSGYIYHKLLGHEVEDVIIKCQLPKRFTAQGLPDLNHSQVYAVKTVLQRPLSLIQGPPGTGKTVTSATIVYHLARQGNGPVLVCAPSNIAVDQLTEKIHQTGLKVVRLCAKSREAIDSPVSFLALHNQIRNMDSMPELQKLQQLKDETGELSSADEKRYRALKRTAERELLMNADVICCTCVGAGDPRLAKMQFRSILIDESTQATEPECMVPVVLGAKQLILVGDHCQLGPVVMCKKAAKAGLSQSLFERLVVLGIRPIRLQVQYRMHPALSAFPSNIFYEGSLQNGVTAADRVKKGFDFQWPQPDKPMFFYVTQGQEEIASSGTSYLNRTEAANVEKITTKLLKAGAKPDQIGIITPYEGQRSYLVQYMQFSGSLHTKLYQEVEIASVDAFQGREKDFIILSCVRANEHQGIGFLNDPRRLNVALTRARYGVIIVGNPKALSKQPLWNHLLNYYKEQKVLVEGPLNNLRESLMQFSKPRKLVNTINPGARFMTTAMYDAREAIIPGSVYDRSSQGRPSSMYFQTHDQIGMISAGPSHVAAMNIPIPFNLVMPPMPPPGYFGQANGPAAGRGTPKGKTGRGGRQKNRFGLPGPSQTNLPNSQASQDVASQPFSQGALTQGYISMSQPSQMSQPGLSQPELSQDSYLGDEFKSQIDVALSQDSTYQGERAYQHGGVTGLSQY
Described as above.

Sequences of proteins named here, by UniProt entry; tags and fusion partners are left off. A change or cut given only in a name is not applied to a line headed by its entry. A line that says so, or that is headed by a name, gives the form on record, which may keep a tag or linker. Residues count along the entry.
UniProt P12956: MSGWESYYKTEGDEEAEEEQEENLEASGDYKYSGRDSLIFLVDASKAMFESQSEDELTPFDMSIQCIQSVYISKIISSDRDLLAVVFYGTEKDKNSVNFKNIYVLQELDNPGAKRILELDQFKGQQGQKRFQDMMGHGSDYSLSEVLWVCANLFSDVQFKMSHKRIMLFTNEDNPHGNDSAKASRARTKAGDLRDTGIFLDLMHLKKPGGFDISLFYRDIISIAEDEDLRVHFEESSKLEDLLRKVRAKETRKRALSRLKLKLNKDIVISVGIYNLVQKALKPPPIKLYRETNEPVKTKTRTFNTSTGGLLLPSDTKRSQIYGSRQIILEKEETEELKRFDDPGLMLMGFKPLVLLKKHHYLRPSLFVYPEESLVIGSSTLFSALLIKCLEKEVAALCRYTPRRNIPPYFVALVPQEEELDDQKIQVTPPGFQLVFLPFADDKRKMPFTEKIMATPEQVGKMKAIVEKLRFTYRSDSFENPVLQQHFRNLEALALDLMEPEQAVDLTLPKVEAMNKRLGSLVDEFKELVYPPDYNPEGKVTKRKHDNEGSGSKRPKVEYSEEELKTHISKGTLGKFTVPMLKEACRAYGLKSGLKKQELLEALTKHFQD
MYC-tagged Ku70 1-573: residues 1-573 of P12956
MYC-tagged Ku70 257-609: residues 257-609 of P12956
MYC-tagged Ku70 464-609: residues 464-609 of P12956
UniProt Q06330: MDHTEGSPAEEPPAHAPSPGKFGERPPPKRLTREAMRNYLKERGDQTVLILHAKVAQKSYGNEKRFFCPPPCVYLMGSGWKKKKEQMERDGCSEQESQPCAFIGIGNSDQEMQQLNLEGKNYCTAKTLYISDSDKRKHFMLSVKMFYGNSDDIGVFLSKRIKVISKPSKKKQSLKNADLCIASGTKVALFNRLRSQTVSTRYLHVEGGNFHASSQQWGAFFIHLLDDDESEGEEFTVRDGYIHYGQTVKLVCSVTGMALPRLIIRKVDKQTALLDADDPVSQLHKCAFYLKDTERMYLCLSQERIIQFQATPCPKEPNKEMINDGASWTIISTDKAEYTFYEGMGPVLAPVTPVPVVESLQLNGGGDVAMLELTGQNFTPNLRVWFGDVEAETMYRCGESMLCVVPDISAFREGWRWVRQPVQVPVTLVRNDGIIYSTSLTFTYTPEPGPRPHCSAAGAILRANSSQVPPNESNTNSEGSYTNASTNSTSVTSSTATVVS
FLAG-tagged CSL BTD (166–334): residues 166-334 of Q06330
UniProt P13010: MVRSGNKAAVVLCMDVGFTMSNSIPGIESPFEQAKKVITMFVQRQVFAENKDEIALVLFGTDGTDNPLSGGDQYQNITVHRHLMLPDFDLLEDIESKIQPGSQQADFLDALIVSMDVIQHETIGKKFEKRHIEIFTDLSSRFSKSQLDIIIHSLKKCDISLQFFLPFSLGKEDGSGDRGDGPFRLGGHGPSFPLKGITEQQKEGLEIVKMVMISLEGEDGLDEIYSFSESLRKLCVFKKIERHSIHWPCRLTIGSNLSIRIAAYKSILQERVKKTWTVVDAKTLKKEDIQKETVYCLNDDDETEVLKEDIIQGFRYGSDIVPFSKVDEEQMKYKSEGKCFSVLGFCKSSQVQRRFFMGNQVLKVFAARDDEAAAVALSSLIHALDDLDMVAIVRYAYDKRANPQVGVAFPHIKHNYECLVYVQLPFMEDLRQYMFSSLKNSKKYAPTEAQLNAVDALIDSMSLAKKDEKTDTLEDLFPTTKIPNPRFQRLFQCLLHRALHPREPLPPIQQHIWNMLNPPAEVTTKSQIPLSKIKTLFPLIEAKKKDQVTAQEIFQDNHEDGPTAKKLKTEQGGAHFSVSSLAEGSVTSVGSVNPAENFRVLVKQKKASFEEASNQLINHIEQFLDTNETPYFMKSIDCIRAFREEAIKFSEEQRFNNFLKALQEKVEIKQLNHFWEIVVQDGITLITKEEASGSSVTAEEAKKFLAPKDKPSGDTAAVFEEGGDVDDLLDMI

The target of assay [10] is FLAG-tagged CSL F235R (human) (UniProt Q06330). The assay is described as follows: co-IP; HEK293T cells expressing FLAG-tagged CSL FL, BTD or point mutants plus/minus FL UPF1 or FL Ku70; anti-FLAG M2 magnetic beads, immunoblotting.
In assay [11] the target is FLAG-tagged CSL Q307R (human) (UniProt Q06330). The description is as above.
The target of assay [12] is purified recombinant CSL (UniProt Q06330). The assay is described as follows: MST; labelled CSL (RED-NHS) at 1 µM with two-fold dilutions of unlabeled UPF1 or Ku70 (9 µM to 0.27 nM); labeled UPF1 at 1 µM with unlabeled Ku70 (4 µM to 0.12 nM); standard MST buffer, room temperature 20 min; Monolith NT.115; both purified.

These are yes or no findings as the source states them, for the method shown. For some assays here: Binding seen in cells or lysates may run through a third protein. Some results given as binding are weak or reduced against the parent protein; the word gives no strength.

For the substance “FLAG-tagged full length (FL) CSL (from UniProt Q06330 1-500)”, the binding result in [1], in assay [2] and in assay [3] was “binds” in each case.

For “Ku70 in HEK293T cells (Fig. 8c) (from UniProt P12956 1-609)”, the binding entry in assay [4] and in assay [5] was “binds” each time.

Turning to “Ku70, endogenous (from UniProt P12956 1-609)”, the binding result in [6], in assay [7], in [8] and in assay [9] was “binds” in each case.

Consider “Ku80, endogenous (from UniProt P13010 1-732)”, for which the binding entry in [6], in [7], in assay [8] and in assay [9] was “binds” each time.

For “MYC-tagged full length (FL) Ku70 (from UniProt P12956 1-609)”, the binding result in [10], in assay [11] and in assay [5] was “binds” each time.

As to “purified recombinant Ku70 (from UniProt P12956 1-609)”, the binding entry in [12] is given as “binds”.

Values taken from PMC6715699.
